# Screen size: about 320,000 compounds; about 2,100 (0.66%) were called active. Inconclusive results, whose numbers are uncertain, are shown with a selection of clear calls. Calls follow the shape of the dose curve; as a rule, active = well fitted inhibition curve with a large enough effect in the signal ratio, with a control signal flat (not every such curve was filed as active); inconclusive = small, poorly fitted or top-dose-only effect, or effect the other way, or a change in a side signal; inactive = flat fitted curve, though single readings scatter; the % refers to the signal ratio. Potencies of inconclusive entries are doubtful fits and often do not repeat.
# Assay: qHTS Assay for Lipid Storage Modulators in Drosophila S3 Cells
# Conditions: BODIPY lipid droplet fluorescence, 18-24 h, cells fed with added oleic acid; lipid storage change, negative = inhibition: at 46.1 µM (top of the series) unless noted
# How it was run: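 Drosophila S3 cells got compounds at several concentrations plus oleic acid (400 uM solution). Laser-scanning cytometry with 488 nm excitation read lipid droplets at 500-530 nm and cells at 575-640 nm. Percent activity was relative to 20 uM Triacsin C.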
# % is scaled to controls: 0 for no effect and ±100 for the full control effect; potency is read from the fitted curve at half-maximal effect.
SMILES,Potency,"lipid storage change, negative = inhibition"
Cc1ccc(S(=O)(=O)N2CCN(C(=O)CSc3ccc(F)cc3)CC2)cc1,"inconclusive: 29.1 µM [falling, single point]",
Cc1cc(C(=O)NCc2ccc3c(c2)OCO3)ccc1[N+](=O)[O-],,inconclusive: 13.3%
COc1ccccc1N1CCN(C(=O)c2oc3c(c2C)C(=O)CC(C)(C)C3)CC1,,inconclusive: 2.86%
O=C(NCCN1CCOCC1)/C(=C/c1ccco1)NC(=O)c1ccccc1,,inconclusive: 7.07%
COc1cc(C#N)ccc1OC(=O)C1CCN(C(=O)c2ccc(F)cc2)CC1,,inconclusive: -0.261%
COCCCn1c(SCC(N)=O)nnc1-c1ccccc1,,inconclusive: 31.4%
COC(=O)c1cc(=O)n(Cc2cccs2)c(=Nc2ccccc2)s1,"inconclusive: 3.26 µM [activator, partial curve, poor fit]",
O=C(Nc1ccc(Cl)cn1)c1cccc(S(=O)(=O)N2CCCCC2)c1,,inactive
COc1cc(CC(=O)Nc2nc(-c3ccc(F)c(F)c3)cs2)cc(OC)c1OC,"inconclusive: 0.231 µM [falling, partial curve, poor fit]",
O=S(=O)(c1cccs1)n1nnc2ccccc21,,inconclusive: 49.3%
COc1ccccc1N1CCN(C(=S)Nc2ccccc2)CC1,,inconclusive: 40.6%
O=C(NCc1ccccn1)Nc1ccc(Br)cc1Cl,,inconclusive: -22.8%
CCOC(=O)Cc1csc(NS(=O)(=O)c2ccc(NC(C)=O)cc2)n1,"inconclusive: 6.51 µM [activator, single point]",
N[C@H](CSCc1ccccc1)C(=O)Nc1ccc([N+](=O)[O-])cc1,,inconclusive: -2.8%
NC(=O)c1nsc(C(=O)N(c2cccc(F)c2)C(C(=O)NCc2ccccc2)c2ccc(O)cc2)c1N (stereo unspecified),"inconclusive: 0.411 µM [falling, single point]",
Cc1nc(SCc2ccccc2C)n[nH]1,"inconclusive: 29.1 µM [rising, single point]",
Cc1cc(C)cc(OCCNC(=O)c2ccc(Br)cc2)c1,,inactive
Cc1ccc(N2CC3=C(C2=O)C(c2ccccc2)NC(=O)N3C)cc1 (stereo unspecified),,inconclusive: 33.7%
CCOCCn1c(CN2CCc3ccccc3C2)nc2c1c(=O)n(C)c(=O)n2C,,inconclusive: -8.01%
Cc1cccc2sc(NNC(=O)c3ccc(S(=O)(=O)N4CC(C)CC(C)C4)cc3)nc12 (stereo unspecified),"inconclusive: 29.1 µM [falling, single point]",
O=C(O)CSCC(=O)N1CCc2c([nH]c3ccccc23)C1C(F)(F)F (stereo unspecified),,inconclusive: 20.9%
COCC(O)CSc1nc(C)[nH]c1[N+](=O)[O-] (stereo unspecified),"inconclusive: 16.4 µM [falling, single point]",
Cc1nc(NC(=O)C23CCC(C)(C(=O)O2)C3(C)C)sc1C (stereo unspecified),,inconclusive: 30%
COc1ccc(CCNC(=O)CN2C(=O)C3(OCCCO3)c3ccccc32)cc1OC,,inconclusive: 2.23%
CCCc1sc(N)nc1-c1ccc(C)cc1,,inconclusive: 15.3%
Clc1ccccc1-c1ncc(-c2ccccc2)o1,,inconclusive: -28.9%

SMILES,Potency,"lipid storage change, negative = inhibition"
O=C1[C@H]2[C@H](ON3CCCC[C@H]23)C(=O)N1c1cccc(C(F)(F)F)c1,,inconclusive: -24.7%
CC12COC3(C(=O)Nc4ccc([N+](=O)[O-])cc4)CC1CCC32C (stereo unspecified),"inconclusive: 20.6 µM [cytotoxic, partial curve]",
Cc1ccc(C)c(OCC(=O)NC(Cc2c[nH]c3ccccc23)C(=O)O)c1 (stereo unspecified),"inconclusive: 0.366 µM [falling, partial curve, poor fit]",
O=C(Cn1cnc2sc3c(c2c1=O)CCCC3)NCC(=O)Nc1ccc(F)cc1F,"inconclusive: 29.1 µM [activator, single point]",
CCCCS(=O)(=O)c1sc2nc3c(cc2c1N)CCCC3,"inconclusive: 25.9 µM [activator, single point]",
COc1ccc(-c2nc(CSCC(=O)NCc3ccc4c(c3)OCO4)c(C)o2)cc1OC,,inconclusive: -27.3%
O=c1cc2c(nn1Cc1ccccc1Cl)-c1ccccc1CC2,"inconclusive: 7.31 µM [activator, partial curve]",
Cc1ccc2nc(-c3ccc(NC(=O)CNC4CC4)cc3)sc2c1,,inconclusive: 64.6%
Cc1onc(-c2ccccc2)c1C(=O)Nc1nncs1,,inconclusive: 31.7%
O=C(COC(=O)[C@@H]1CCCN1S(=O)(=O)c1ccc(Cl)cc1)NC1CCS(=O)(=O)C1 (stereo partly specified),,inconclusive
CC(=O)c1c(C)[nH]c(C(=O)Nc2ccc(Cl)cc2)c1C,"inconclusive: 0.092 µM [activator, full curve]",
CCC(C)(C)NC(=O)CN(C(=O)C(=O)Nc1ccc2c(c1)OCCO2)C1CC1,active: 1.16 µM,
Cc1ccc(CNC(=O)c2cc3c(=O)n4ccccc4nc3n(Cc3ccco3)c2=N)cc1,,inconclusive: 2.51%
O=c1cc(CSc2nnc(-c3ccccc3)o2)c2ccccc2[nH]1,,inconclusive: -6.46%
O=C(Nc1ccc(F)cc1)Nc1nnc(-c2ccco2)s1,,inconclusive: 0.402%
O=C(CSc1ncnc2c1nnn2Cc1ccccc1F)NCC1CCCO1 (stereo unspecified),,inconclusive: -36.7%
Cc1ccc(S(=O)(=O)CCNC(=O)Cc2ccc(Cl)cc2)cc1,,inconclusive: 5.73%
C/C=C(\C)C(=O)OC1c2c(ccc3ccc(=O)oc23)OC(C)(C)C1OC(C)=O (stereo unspecified),,inconclusive: -20.6%
Cc1nc(NC(=O)CSc2ccc(-c3nc4ccccc4[nH]3)cn2)sc1C,"inconclusive: 29.1 µM [cytotoxic, single point]",
CCCCCc1nnc(NC(=O)C2COc3ccccc3O2)s1 (stereo unspecified),,inconclusive: 21.5%
CCOC(=O)CN1CC23C=CC(O2)C(C(=O)Nc2ccc(C(C)=O)cc2)C3C1=O (stereo unspecified),,inconclusive: 8.24%
O=C(CSC1=NC2(CCCCC2)N=C1c1ccccc1)Nc1ccc2c(c1)OCCO2,,inconclusive: -5.32%
CC(=O)N1CCC(C(=O)Nc2ccc(S(=O)(=O)N3CCCCC3)cc2)CC1,"inconclusive: 0.291 µM [falling, full curve]",
Cn1nnnc1Sc1ncnc2scc(-c3ccc(F)cc3)c12,,inconclusive: 5.39%
Cc1ccc(N(C)C(=O)c2cc(S(=O)(=O)N3CCCC3)cn2C)cc1,"inconclusive: 1.64 µM [falling, partial curve]",
O=c1c2ccccc2nc(COc2ccccc2)n1/N=C/c1ccc(O)c(O)c1,,inconclusive: -31.5%

SMILES,Potency,"lipid storage change, negative = inhibition"
O=C(Nc1cccc2ccccc12)NC1CCS(=O)(=O)C1 (stereo unspecified),,inconclusive: 0.307%
CN(C)c1ccc(C(c2nnnn2C(C)(C)C)N2CCN(C(=O)c3ccco3)CC2)cc1 (stereo unspecified),,inconclusive: 59.3%
COc1ccc(C2=NOC(C(=O)Nc3ccc(C(C)=O)cc3)C2)cc1OC (stereo unspecified),,inconclusive: 24.7%
COc1cccc(NC(=S)NC(=O)Cc2ccc(Cl)cc2)c1,,inconclusive: 73.7%
CCOc1ncccc1C(=O)OCC(=O)c1cc(OC)ccc1OC,,inconclusive: 27%
COc1ccc2c(c1OC)C(=O)O[C@@H]2[C@H]1c2c(cc3c(c2OC)OCO3)CCN1C,,inconclusive: -2.54%
CC(C)[C@@H]1COC(c2cccc(C3=N[C@H](C(C)C)CO3)c2)=N1,,inconclusive: 44.7%
O=S(=O)(Nc1ccccc1OC(F)F)c1ccc(S(=O)(=O)N2CCCC2)cc1,"inconclusive: 0.0046 µM [activator, full curve, poor fit]",
CSC(=NS(=O)(=O)c1ccc(C)cc1)SC,"inconclusive: 0.13 µM [activator, full curve, poor fit]",
COc1cccc(CNC(=O)c2nnn(CC(=O)Nc3c(C)cccc3C)c2N)c1,"inconclusive: 29.1 µM [falling, single point]",
COc1ccc(C(C#N)N2N=C(C)CC2(C)C)cc1 (stereo unspecified),,inconclusive: 2.2%
CN(C(=O)c1cc(-n2cnnc2)ccc1Cl)c1ccccc1,"inconclusive: 20.6 µM [activator, single point]",
Cc1ccc(S(=O)(=O)N(C)CC(=O)NNC(=O)Cc2cccc(F)c2)cc1,"inconclusive: 10.3 µM [falling, partial curve, poor fit]",
CCN(CC)c1ccc(/C=C(\C#N)C(=O)NCc2ccco2)cc1,,inconclusive: -29%
CCCC(=O)Nc1cc(Cl)ccc1N1CCN(C(=O)CC)CC1,"inconclusive: 5.17 µM [activator, partial curve, poor fit]",
COc1cc(C2c3c([nH]c(=O)[nH]c3=O)Nc3ccc4ccccc4c32)ccc1O (stereo unspecified),"inconclusive: 0.164 µM [activator, full curve, poor fit]",
Cc1ccc(-n2nc(C)c(NC(=O)CCl)c2C)cc1,,inconclusive: -35%
COc1cccc(N(CC(=O)NC2CCCC2)C(=O)CCCC(=O)Nc2ccccn2)c1,"inconclusive: 0.651 µM [activator, partial curve]",
S=C(NCCc1ccccc1)Nc1cnc2ccccc2c1,,inconclusive: 47.5%
COCC(C)n1c(SCC(=O)N2CCc3ccccc3C2)nc2ccccc2c1=O (stereo unspecified),,inconclusive: 42.3%
COC(=O)c1oc2c(c1C)C1(CCC2)SCCS1,"inconclusive: 3.26 µM [falling, full curve]",
COc1ccc(NC(=S)NC(=O)CC(C)C)c(OC)c1,,inconclusive: 4.9%
CC1(C)Cc2nc3sc4c(N(CCO)CCO)nnnc4c3cc2CO1,,inconclusive: 5.39%
CC(C)(C)SCCNC(=O)CN1C(=O)c2ccccc2S1(=O)=O,,inconclusive: -29.7%

# Given bar-delimited: entries from further up.
SMILES | Potency | lipid storage change, negative = inhibition
COc1ccc(C(C#N)N2N=C(C)CC2(C)C)cc1 (stereo unspecified) |  | inconclusive: 2.2%
CN(C(=O)c1cc(-n2cnnc2)ccc1Cl)c1ccccc1 | inconclusive: 20.6 µM [activator, single point] | 
Cc1ccc(S(=O)(=O)N(C)CC(=O)NNC(=O)Cc2cccc(F)c2)cc1 | inconclusive: 10.3 µM [falling, partial curve, poor fit] | 
